Results reported in patent US20090159876A1, “ORGANIC SEMICONDUCTOR MATERIAL AND ORGANIC FIELD EFFECT TRANSISTOR” (MITSUBISHI CHEMICAL CORPORATION, priority 2005, published 2009).

Experiment: Electrical characteristics of organic FET (semiconductor parameter analyzer)
Conditions: for On-Off Ratio: applied voltage Vd of −30 V; for Vt (threshold voltage) / Mobility: nitrogen atmosphere; for Mobility: spin-coated semiconductor layer, from saturation current

Compound: CCCCCCc1ccc(-c2ccc(-c3sc(-c4cc(-c5ccc(CC)cc5)c(-c5ccc(-c6ccc(CCCCCC)s6)s5)s4)cc3-c3ccc(CC)cc3)s2)s1 [Example 1]
- On-Off Ratio: 2.7 × 10^6
- On-Off Ratio (listed as oligothiophene A): 2.7×10^6
- Vt (threshold voltage): −0.7 V
- Mobility: 7.0 × 10^−3 cm^2/Vs

Compound: CCCCCCc1ccc(-c2ccc(-c3ccc(-c4sc(-c5cc(-c6ccc(CC)cc6)c(-c6ccc(-c7ccc(-c8ccc(CCCCCC)s8)s7)s6)s5)cc4-c4ccc(CC)cc4)s3)s2)s1 [Example 2]
- On-Off Ratio: 1.3 × 10^4
- Vt (threshold voltage): −3.4 V
- Mobility: 1.8 × 10^−2 cm^2/Vs

Compound: CCCCCCc1ccc(-c2ccc(-c3ccc(-c4ccc(-c5sc(-c6cc(-c7ccc(CC)cc7)c(-c7ccc(-c8ccc(-c9ccc(-c%10ccc(CCCCCC)s%10)s9)s8)s7)s6)cc5-c5ccc(CC)cc5)s4)s3)s2)s1 [Example 3]
- On-Off Ratio: 1.2 × 10^3
- Vt (threshold voltage): 0.44 V
- Mobility: 1.8 × 10^−2 cm^2/Vs

Compound: CCCCCCc1ccc(-c2ccc(-c3ccc(-c4ccc(-c5sc(-c6ccc(CCCCCC)s6)cc5-c5ccc(CC)cc5)s4)s3)s2)s1 [Example 5]
- On-Off Ratio: 2.4 × 10^1
- Vt (threshold voltage): 39 V
- Mobility: 1.3 × 10^−2 cm^2/Vs

Compound: CCCCCCc1ccc(-c2ccc(-c3ccc(-c4ccc(-c5ccc(-c6sc(-c7cc(-c8ccc(CC)cc8)c(-c8ccc(-c9ccc(-c%10ccc(-c%11ccc(-c%12ccc(CCCCCC)s%12)s%11)s%10)s9)s8)s7)cc6-c6ccc(CC)cc6)s5)s4)s3)s2)s1 [Example 6]
- On-Off Ratio: 4.6 × 10^6
- Vt (threshold voltage): 1.2 V
- Mobility: 1.2 × 10^−1 cm^2/Vs

Compound: CCCCCCc1ccc(-c2cc(-c3ccc(CC)cc3)c(-c3ccc(-c4ccc(-c5ccc(-c6sc(-c7cc(-c8ccc(CC)cc8)c(-c8ccc(-c9ccc(-c%10ccc(-c%11sc(-c%12ccc(CCCCCC)s%12)cc%11-c%11ccc(CC)cc%11)s%10)s9)s8)s7)cc6-c6ccc(CC)cc6)s5)s4)s3)s2)s1 [Example 7]
- On-Off Ratio: 6.1 × 10^3
- Vt (threshold voltage): 9 V
- Mobility: 5.7 × 10^−2 cm^2/Vs

Compound: c1csc(-c2ccc(-c3ccc(-c4ccc(-c5ccc(-c6cccs6)s5)s4)s3)s2)c1 [α-6T, α-sezithiophene, reference compound]
- On-Off Ratio: 6.6 × 10^3
- Vt (threshold voltage): 12 V
- Mobility: 4.5 × 10^−2 cm^2/Vs
